Assay results taken from US7550468B2, “Theophylline and 3-isobutyl-1 methylxanthine based N-7 substituted derivatives displaying inhibitory activities on PDE-5 phospodiesterase” (priority 2000, dated 2009).
At least one compound was matched to its structure with a doubt left.

System: Rabbit Corpus Cavernosal
Assay: Relaxation of phenylephrine precontracted rabbit corpus cavernosal strips
Type: cell-based
Settings: combined with IBMX (3-isobutyl-1-methylxanthine), FIG. 5
Excerpt: Recently some reports have stated that theophyllline has an adenosine […] antagonist and phosphodiesterase (PDE) inhibitor function. […] FIG. 4A illustrates the experimental results and the effects of compound 14 on phenylphrine precontracted rabbit corpus cavemosal in the absence and presence of L-NAME, methylene blue, ODQ. FIG. 4B illustrates the experimental results and the effects of compound 14 on phenylphrine precontracted rabbit corpus cavernosal in absence and presence of potassium channel blockers.

SMILES: CC(C)Cn1c(=O)n(C)c(=O)c2c1ncn2CCN1CCN(c2ccccc2Cl)CC1 [Compound 14, 7-{2-[4-(2-chlorophenyl)piperazinyl]ethyl}-3-isobutyl-1-methylxanthine]
- effects of compound and IBMX on phenylephrine precontracted rabbit cavernosal strips: additive effects
